Screen size: about 400,000 compounds; about 13,000 (3.2%) were called active. This list was built around the results that the source calls inconclusive (neither active nor inactive); the mix of calls is not that of the screen. The call rests on the fitted dose curve; in most records, active means well fitted cell-killing curve with a large enough effect; inconclusive means small, poorly fitted or top-dose-only effect, or effect the other way; inactive means flat fitted curve, though single readings scatter. Where the call is inconclusive, the potency comes from a doubtful curve fit.
experiment: qHTS assay for MDR1-selective chemotherapeutics: Primary screen using the drug-selected MDR subline cells KB-V1; conditions: KB-V1 MDR cells viability, CellTiter-Glo, 72 h; activity change, negative = cytotoxicity: at 46.1 µM (top of the series); further: nearly all actives have a fitted effect of over 60% in size
Method in brief: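 Compound-treated KB-V1 multidrug-resistant cells, 72 h, 37 degrees C; viability by CellTiter-Glo. Fitted qHTS curves give the values.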
On the % scale 0 is the no-effect control and ±100 the full control effect; potency means the concentration at half of the fitted maximal effect.

Row | Compound | Potency | activity change, negative = cytotoxicity
1 | Cc1ccc(C)c(OCC(=O)N2CCN(Cc3ccc4c(c3)OCO4)CC2)c1 | inconclusive: 14.6 µM [cytotoxic, partial curve] | –
2 | Cc1ccc(N2C(=O)CC(=O)NC2=O)cc1Cl | inconclusive: 23.1 µM [rising, partial curve, poor fit] | –
3 | Clc1ccc(OCC#CCN2CCOCC2)cc1 | inconclusive: 0.146 µM [rising, full curve] | –
4 | O=C(Cn1ncc2c3ccccc3n(Cc3ccccc3F)c2c1=O)N1CCC2(CC1)OCCO2 | inconclusive: 20.6 µM [cytotoxic, single point] | –
5 | c1ccc2c(CN3CCCCC3)c[nH]c2c1 | – | inactive: 6.74%
6 | CCOC(=O)[C@]12Cc3ccccc3[C@H]1N(CCC(=O)OC)C(=O)c1cc(OC)ccc12 | active: 9.2 µM | –
7 | CC(C)C[C@@H]1COc2cc(N3CCN(C)CC3)ccc2S(=O)(=O)N1 | inconclusive: 29.1 µM [rising, single point] | –
8 | COC(=O)C1=C(c2ccc(OC(F)(F)F)cc2)C[C@@H]2CC[C@H]1N2C(=O)NCC1CC1 | inconclusive: 0.0651 µM [cytotoxic, full curve] | –
9 | Clc1ccc(NC2=NCCCS2)cc1Cl | inconclusive: 29.1 µM [cytotoxic, single point] | –
10 | C1=C(c2c[nH]c3ccccc23)CCN(Cc2ccccc2)C1 | – | inactive: -6.04%
11 | O=C(CCN1CC2CCC(CC2)C1)c1cccs1 | – | inactive: -0.491%
12 | COc1ccc(OC(=O)N(C)C[C@@H]2OCc3cnnn3CCCC(=O)N([C@@H](C)CO)C[C@H]2C)cc1 | inconclusive: 6.51 µM [rising, full curve] | –
13 | CC(=O)NC1=C(N2CC2C)C(=O)C(NC(C)=O)=C(N2CC2C)C1=O (centres undefined) | – | inactive: 0%
14 | CCOC(=O)C1(c2ccccc2)CCN(CCC(=O)Nc2cccc(Br)c2)CC1 | inconclusive: 29.1 µM [cytotoxic, single point] | –
15 | CC(C)CCNC(=O)c1c(N)n(Cc2ccc3c(c2)OCO3)c2nc3ccccc3nc12 | inconclusive: 23.1 µM [cytotoxic, single point] | –
16 | CCOc1cc(CNCCc2c[nH]c3ccccc23)cc(Cl)c1OC | inconclusive: 11.6 µM [cytotoxic, partial curve, poor fit] | –
17 | c1ccc(CCNCc2cccs2)cc1 | – | inactive: -2.22%
18 | O=C1CN=C(c2cccs2)c2c(sc3c2CCCC3)N1 | inconclusive: 18.4 µM [cytotoxic, single point] | –
19 | Cc1cccc(N2C(=O)NC(=O)/C(=C\C=C\c3ccco3)C2=O)c1 | – | inactive: -14.6%
20 | C[C@@H]1CN([C@@H](C)CO)C(=O)CCCn2cc(nn2)CO[C@H]1CN(C)C(=O)Oc1cccc2ccccc12 | – | inactive: -0.34%
21 | O=C(CNC(=O)OCc1ccccc1)Nc1ccc(Br)cc1C(=O)c1ccccc1 | active: 10.3 µM | –
22 | Cc1cccc(-n2c(/C=C/c3ccccn3)nc3ccccc3c2=O)c1 | inconclusive: 20.6 µM [cytotoxic, single point] | –
23 | Cn1c(O)c(C=Nc2ccc3c(c2)CCC3)c(=O)n(C)c1=O | inconclusive: 13 µM [rising, partial curve, poor fit] | –
24 | Cc1cc(OC(C)C(=O)NCC(O)c2ccccc2)c2c3c(c(=O)oc2c1)CCC3 (centres undefined) | – | inactive: -16.4%
25 | COc1ccc2[nH]cc(CCN(C)C)c2c1 | – | inactive: 6.19%

Quoted from the listing.
Potency with Clc1ccc(NC2=NCCCS2)cc1Cl is entered as inconclusive: 29.1 µM [cytotoxic, single point]
activity change, negative = cytotoxicity with C1=C(c2c[nH]c3ccccc23)CCN(Cc2ccccc2)C1 is entered as inactive: -6.04%
Potency with CCOC(=O)[C@]12Cc3ccccc3[C@H]1N(CCC(=O)OC)C(=O)c1cc(OC)ccc12 is entered as active: 9.2 µM

Continuation:

Row | Compound | Potency | activity change, negative = cytotoxicity
26 | COC(=O)C1=C(c2ccc(C(C)=O)cc2)C[C@@H]2CC[C@H]1N2C(=O)NCc1ccc2c(c1)OCO2 | – | inactive: 3.25%
27 | COc1ccc(-c2nc(CN3C(=O)CN=C(c4ccccc4Cl)c4cc(Cl)ccc43)c(C)o2)cc1OC | inconclusive: 29.1 µM [cytotoxic, single point] | –
28 | O=C1c2ccccc2-c2cccc3cccc1c23 | – | inactive: -15.5%
29 | CN(C)P1(=O)N(C)CCN1C | – | inactive: -3.92%
30 | O=C(c1ccc2c(c1)N(Cc1ccc(F)cc1)CCS2)N1CCC2(CC1)OCCO2 | – | inactive: -1.12%
31 | COC(=O)C1=Nc2ccccc2/C1=C\c1c(O)n(-c2ccc(Br)cc2)c(=O)[nH]c1=O | – | inactive: -0.0032%
32 | C[N+]1(C)C2CCC1CC(OC(=O)C(CO)c1ccccc1)C2 (centres undefined) | inconclusive: 20.6 µM [rising, single point] | –
33 | COC(=O)C1=C(c2ccccc2OCc2ccccc2)C[C@@H]2CC[C@H]1N2C(=O)NCCOc1ccc(OC)cc1 | – | inactive: 0%
34 | N[C@@H](Cc1c[nH]c2ccccc12)c1nnc(SCc2c(F)cccc2Cl)o1 | active: 18.4 µM | –
35 | CC[C@@H]1c2ccccc2[C@@H]2CC[C@H]1N2c1ccccc1 | – | inactive: 0.56%
36 | CSc1ccc(CN2CCN(c3ccccc3C)CC2)cc1 | inconclusive: 13 µM [cytotoxic, partial curve] | –
37 | CC1CC(C)(O)CC(C(O)CC2CC(=O)NC(=O)C2)C1=O (centres undefined) | active: 6.51 µM | –
38 | CCOP(=O)(OCC)C1(C(=O)O)CCCC1 | – | inconclusive: 32.6%
39 | COC(=O)C1=C(c2ccc(S(C)(=O)=O)cc2)C[C@@H]2CC[C@H]1N2C(=O)NCc1ccc(C(F)(F)F)cc1 | – | inactive: -2.62%
40 | CN1CCN(C(=O)COc2ccc(S(=O)(=O)NC3CCCCC3)cc2Cl)CC1 | – | inactive: 3.12%
41 | COc1ccc(-n2nnnc2C(c2cccs2)N2CCC(n3c(=O)[nH]c4ccccc43)CC2)cc1 (centres undefined) | – | inactive: 0%
42 | CCOC(=O)c1ccc2[nH]c(-c3ccc(S(=O)(=O)F)cc3)cc(=O)c2c1 | – | inactive: -1.85%
43 | O=C(CCN1CCOCC1)Nc1ccc(Br)cc1C(=O)c1ccccc1 | – | inactive: -8.26%
44 | O=C(O)CP(=O)(O)c1ccc(Cl)cc1 | – | inactive: -0.899%
45 | CCCCn1c(=O)c(C(=O)Nc2ccc(C)cn2)c(O)c2ccccc21 | inconclusive: 2.31 µM [cytotoxic, full curve] | –
46 | CCN1CCN(C(=O)COc2ccc(S(=O)(=O)Nc3ccc(Cl)cc3)cc2)CC1 | inconclusive: 10.3 µM [rising, partial curve, poor fit] | –
47 | COC(=O)C1=C(c2ccc(-c3ccccc3)c(F)c2)C[C@@H]2CC[C@H]1N2C(=O)NC1CCCCC1 | inconclusive: 20.6 µM [cytotoxic, single point] | –
48 | CC1(c2ccccc2)NCCN2C(=O)CSC21 (centres undefined) | inconclusive: 0.116 µM [rising, full curve, poor fit] | –
49 | COc1cc2c(cc1OC)C(C(=O)N1CCC3(CC1)OCCO3)C(c1ccccc1F)N(C)C2=O (centres undefined) | – | inactive: -9.15%

From PubChem BioAssay AID1347076 (National Center for Advancing Translational Sciences (NCATS), 2019)
